Results on three molecules are retold here after article PMC11148194.

Numbering of substitutions follows the chain as printed. Numbers in names are those of the source. No constants are given. Whether binding was seen depends on the method and setting. Binding seen in cells or lysates may run through a third protein. Some entries that bind do so weakly or less than the wild type. Sequences can lack the tags named with a protein.

In assay [1] the target is T1, Psm3-GFP (S. pombe Psm3, cohesin subunit SMC3) (S. pombe) (UniProt O42649).
T1 sequence: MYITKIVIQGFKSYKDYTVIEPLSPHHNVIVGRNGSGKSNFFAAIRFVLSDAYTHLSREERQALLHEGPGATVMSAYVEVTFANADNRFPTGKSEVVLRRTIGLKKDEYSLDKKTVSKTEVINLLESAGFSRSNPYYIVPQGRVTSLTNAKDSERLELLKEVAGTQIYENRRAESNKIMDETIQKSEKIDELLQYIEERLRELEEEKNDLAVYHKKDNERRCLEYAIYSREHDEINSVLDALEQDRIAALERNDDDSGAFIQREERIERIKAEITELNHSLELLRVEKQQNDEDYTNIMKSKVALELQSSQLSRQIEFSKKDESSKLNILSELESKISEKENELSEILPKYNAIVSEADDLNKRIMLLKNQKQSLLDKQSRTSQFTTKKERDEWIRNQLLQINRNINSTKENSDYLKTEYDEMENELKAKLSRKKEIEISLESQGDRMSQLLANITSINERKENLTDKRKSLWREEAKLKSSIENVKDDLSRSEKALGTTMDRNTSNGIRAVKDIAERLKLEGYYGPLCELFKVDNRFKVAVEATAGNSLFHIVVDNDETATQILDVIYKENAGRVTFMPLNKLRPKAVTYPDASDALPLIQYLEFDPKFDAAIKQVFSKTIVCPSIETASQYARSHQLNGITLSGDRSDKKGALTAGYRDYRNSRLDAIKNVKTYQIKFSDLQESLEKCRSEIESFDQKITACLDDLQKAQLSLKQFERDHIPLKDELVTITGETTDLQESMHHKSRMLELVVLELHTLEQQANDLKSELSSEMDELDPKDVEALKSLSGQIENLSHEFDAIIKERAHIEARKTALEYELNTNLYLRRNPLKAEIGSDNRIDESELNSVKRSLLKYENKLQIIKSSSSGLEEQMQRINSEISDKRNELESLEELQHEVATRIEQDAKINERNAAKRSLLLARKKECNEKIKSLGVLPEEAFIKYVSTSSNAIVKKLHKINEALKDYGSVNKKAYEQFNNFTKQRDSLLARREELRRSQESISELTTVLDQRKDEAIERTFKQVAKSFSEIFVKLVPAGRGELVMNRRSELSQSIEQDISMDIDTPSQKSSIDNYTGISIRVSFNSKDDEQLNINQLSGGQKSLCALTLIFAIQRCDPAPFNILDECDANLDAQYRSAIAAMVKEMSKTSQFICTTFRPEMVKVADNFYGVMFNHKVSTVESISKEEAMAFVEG
The assay can be described thus: co-IP; anti-GFP agarose beads hold Psm3-GFP; Sor1-Pk detected by Western blot with anti-V5; extracts of cycling S. pombe cells; IPP150 buffer (50 mM Tris-Cl pH 8.0, 150 mM NaCl, 10% glycerol, 0.1% NP-40), 1 h at 4 °C.

Assay [2] concerns the target T2, Sor1-Pk (S. pombe Sor1, Sororin-like 1, SPAC9E9.05) (S. pombe) (UniProt O14291).
T2 sequence: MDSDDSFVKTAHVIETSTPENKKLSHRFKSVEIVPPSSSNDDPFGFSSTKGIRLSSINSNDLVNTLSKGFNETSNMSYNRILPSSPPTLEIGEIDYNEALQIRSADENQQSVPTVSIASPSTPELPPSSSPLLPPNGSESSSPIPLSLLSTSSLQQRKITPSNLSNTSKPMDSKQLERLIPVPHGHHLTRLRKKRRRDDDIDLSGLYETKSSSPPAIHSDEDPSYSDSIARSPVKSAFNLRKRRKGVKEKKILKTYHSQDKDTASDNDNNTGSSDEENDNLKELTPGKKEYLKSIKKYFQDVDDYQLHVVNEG
Kind of assay: co-IP; anti-V5 agarose beads hold Sor1-Pk; Pds5-Myc detected by Western blot with anti-Myc; extracts of cycling S. pombe cells; IPP150 buffer (50 mM Tris-Cl pH 8.0, 150 mM NaCl, 10% glycerol, 0.1% NP-40), 1 h at 4 °C. A general note: Immunoblotting shows a protein as a band on a membrane.

B1: Sor1-Pk (S. pombe Sor1, Sororin-like 1, SPAC9E9.05) (protein, UniProt O14291 1-313)
chain: T2 sequence
On to B1, for which, in assay [1], the binding entry is reported as “binds”.

B2: Sor1-D303A-Pk (protein, UniProt O14291 1-313)
chain: T2 sequence with D303A
With B2, the binding entry in assay [1] is “binds”.

B3: Pds5-Myc (S. pombe Pds5) (protein, UniProt Q9HFF5 1-1205)
chain: MIKLQFQRNIVPTHDNPLTTSEILKRLRDLLGELTSLSQDTIDRDSVLPVARSLVNNNLLHHKDKGIRSYTLCCIVELLRLCAPDAPFTLSQLEDIFQVILKILSGLMNQESTYYPQIYEILESLSNVKSAVLIVDLPNAEEFLVNIFRLFFDLARKGTTKNVEFYMLDIINQLINEINTIPAAALNILFAQLISGKGVRQTIGSSDSTNHGPAFQLARNIFHDSADRLQRYVCQYFSDIIFDSRDSLSDSMTTPEFIFSHNLVLQLWKYAPTTLLNIIPQFENELQAEQTSVRLVAIETVGLMLQDNAIWSDYPRVWSAFCGRLNDKSVACRIKCIEVASNALQNSLATSEIIENVVQMLQSKLADTDEKVRVATLKTIEQLTFETFKMQFSVQALKLMGDRLRDRKLNVRLQAIRTLSQIYNRAYQDLIDGVEYSIQMFSWIPSSLLEVFYVNDETTNAAVEICMAELVLQYLSSDTQTRLNRLFLSIKYFSEKAMRVFILLLQRQVKYSELLNYYIECCKNYNGGVMDNDEESITNKLKKVIDIISSKSSNPTLTEATFRKFAELNDRQSYKMLLQTFSIKSEYQVVLKSIKYLFKRVSETLSTASLECFRIFVYRSALFAFNKSNVHEIIQLLNEPVKYHNFLKPSEALLQHLPLIHPNIYGEVVIEVENIIVSSGIESDPKVIKALSQFSKRKKNFSIQTTTAEILRKLCLHGTQEQAKQAATIIAITETKEFKLDMITNIVENLEYNGGLPVRLMTLGQLFLYTLEEVEKVADQVTEFLVKKVIQRFPEKYDDTHNDEEWCTYEKLDNLTMCKVLAIRVLVNRLRAAAGGTEALNIGAPIIKLLKVLLMADGELSPFKNTPKISRAYLRLTASKYFLKLCSIPFYAEHIDFSSYVQISLLCQDENFDVRNLFLTKLQKQLQLKKLPISYYPLLFLTAVDPEEEIKTKASIWIRSQVAFFQKTHDFTMEYVATYLIHLLSHHPDISSIESENSLDFIAYIRFYVDTVVNSENVPIVFHLMQRIKQSYDVIEDGNNYIYVLSDMAQKILQVKSQNFGWSLTTYPKQIKLPYEILRPIPSIDEKKRIFNKIFITPKMESQIEHAIRTPVSSFAKQTTNKHANLKQKKTHSSKSDKKSSRRRKNEKRRKLNEQNPNIRNVPERSSSRFQGIRINYSEAPSSSEEISEEEEEISEEDFDEIEDL
In the case of B3, in assay [2], the binding result was “binds”.
